Laboratory results from the supplement of paper PMC12819154, “High-throughput peptide-centric local stability assay extends protein–ligand identification to membrane proteins, tissues and bacteria” (Nature Structural & Molecular Biology, 2025).
Some of the results follow. Most entries show no effect beyond the scatter of the controls.

The chains behind the UniProt entries cited, without tags or fusion partners. Where a name states a change or a piece, a line headed by the entry shows the natural chain unless it says otherwise.
UniProt Q9BQP7: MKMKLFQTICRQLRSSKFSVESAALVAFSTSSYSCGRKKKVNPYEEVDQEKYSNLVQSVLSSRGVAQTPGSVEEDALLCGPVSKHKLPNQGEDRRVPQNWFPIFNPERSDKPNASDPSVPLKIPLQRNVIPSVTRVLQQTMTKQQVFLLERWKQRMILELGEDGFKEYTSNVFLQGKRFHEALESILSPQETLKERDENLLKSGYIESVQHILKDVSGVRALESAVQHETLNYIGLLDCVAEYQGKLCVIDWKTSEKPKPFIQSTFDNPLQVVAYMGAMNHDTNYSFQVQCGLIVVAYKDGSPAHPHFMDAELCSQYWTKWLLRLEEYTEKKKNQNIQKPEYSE
UniProt Q96SB8: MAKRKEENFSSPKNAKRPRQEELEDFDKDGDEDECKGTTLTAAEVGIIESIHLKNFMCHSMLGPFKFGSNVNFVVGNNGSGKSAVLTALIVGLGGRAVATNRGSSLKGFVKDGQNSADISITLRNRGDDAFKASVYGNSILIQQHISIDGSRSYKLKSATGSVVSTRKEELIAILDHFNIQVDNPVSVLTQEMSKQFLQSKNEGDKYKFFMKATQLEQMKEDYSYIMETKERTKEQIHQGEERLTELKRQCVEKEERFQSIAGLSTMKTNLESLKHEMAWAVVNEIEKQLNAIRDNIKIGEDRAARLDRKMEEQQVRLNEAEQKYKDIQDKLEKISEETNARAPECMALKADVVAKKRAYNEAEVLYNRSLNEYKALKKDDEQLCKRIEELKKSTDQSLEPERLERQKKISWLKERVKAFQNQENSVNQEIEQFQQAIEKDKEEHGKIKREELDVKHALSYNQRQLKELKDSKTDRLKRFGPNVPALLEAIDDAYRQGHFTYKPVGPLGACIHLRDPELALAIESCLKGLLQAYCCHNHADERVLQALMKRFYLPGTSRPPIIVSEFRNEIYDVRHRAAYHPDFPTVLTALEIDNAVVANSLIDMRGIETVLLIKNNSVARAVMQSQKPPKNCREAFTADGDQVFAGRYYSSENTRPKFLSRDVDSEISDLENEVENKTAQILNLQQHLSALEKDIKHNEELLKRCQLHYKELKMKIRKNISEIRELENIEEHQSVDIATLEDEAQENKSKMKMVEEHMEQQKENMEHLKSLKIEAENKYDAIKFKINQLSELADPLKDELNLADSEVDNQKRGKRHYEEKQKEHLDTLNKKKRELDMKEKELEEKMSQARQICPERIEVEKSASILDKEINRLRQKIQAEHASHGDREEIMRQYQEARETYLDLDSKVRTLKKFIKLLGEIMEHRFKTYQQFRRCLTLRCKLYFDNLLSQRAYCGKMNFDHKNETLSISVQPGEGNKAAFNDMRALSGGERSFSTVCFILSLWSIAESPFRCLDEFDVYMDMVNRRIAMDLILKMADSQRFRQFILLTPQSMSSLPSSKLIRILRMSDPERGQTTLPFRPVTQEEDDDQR
UniProt Q96SD1, whole entry: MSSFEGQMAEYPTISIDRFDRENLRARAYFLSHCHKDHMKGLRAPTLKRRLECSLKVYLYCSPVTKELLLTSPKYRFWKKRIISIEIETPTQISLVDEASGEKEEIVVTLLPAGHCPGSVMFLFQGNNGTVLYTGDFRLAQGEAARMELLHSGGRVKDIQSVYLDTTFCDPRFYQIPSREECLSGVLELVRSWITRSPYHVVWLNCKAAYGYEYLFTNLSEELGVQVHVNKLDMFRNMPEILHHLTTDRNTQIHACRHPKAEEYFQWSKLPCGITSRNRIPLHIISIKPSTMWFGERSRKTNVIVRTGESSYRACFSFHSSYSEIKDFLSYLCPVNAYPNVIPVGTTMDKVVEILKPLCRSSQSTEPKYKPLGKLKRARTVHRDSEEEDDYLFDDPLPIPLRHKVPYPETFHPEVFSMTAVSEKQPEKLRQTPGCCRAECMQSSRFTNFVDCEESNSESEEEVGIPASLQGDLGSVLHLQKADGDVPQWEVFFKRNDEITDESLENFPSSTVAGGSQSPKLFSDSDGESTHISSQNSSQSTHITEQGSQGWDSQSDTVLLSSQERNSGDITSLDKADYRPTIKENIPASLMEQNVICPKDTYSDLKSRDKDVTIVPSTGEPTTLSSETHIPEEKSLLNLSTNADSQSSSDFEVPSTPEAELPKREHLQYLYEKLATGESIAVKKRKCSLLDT
UniProt Q9BQI0: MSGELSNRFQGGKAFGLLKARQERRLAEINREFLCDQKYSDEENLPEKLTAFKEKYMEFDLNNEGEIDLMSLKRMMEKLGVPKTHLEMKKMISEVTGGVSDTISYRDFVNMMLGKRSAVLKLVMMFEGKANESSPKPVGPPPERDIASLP
UniProt Q99570, whole entry: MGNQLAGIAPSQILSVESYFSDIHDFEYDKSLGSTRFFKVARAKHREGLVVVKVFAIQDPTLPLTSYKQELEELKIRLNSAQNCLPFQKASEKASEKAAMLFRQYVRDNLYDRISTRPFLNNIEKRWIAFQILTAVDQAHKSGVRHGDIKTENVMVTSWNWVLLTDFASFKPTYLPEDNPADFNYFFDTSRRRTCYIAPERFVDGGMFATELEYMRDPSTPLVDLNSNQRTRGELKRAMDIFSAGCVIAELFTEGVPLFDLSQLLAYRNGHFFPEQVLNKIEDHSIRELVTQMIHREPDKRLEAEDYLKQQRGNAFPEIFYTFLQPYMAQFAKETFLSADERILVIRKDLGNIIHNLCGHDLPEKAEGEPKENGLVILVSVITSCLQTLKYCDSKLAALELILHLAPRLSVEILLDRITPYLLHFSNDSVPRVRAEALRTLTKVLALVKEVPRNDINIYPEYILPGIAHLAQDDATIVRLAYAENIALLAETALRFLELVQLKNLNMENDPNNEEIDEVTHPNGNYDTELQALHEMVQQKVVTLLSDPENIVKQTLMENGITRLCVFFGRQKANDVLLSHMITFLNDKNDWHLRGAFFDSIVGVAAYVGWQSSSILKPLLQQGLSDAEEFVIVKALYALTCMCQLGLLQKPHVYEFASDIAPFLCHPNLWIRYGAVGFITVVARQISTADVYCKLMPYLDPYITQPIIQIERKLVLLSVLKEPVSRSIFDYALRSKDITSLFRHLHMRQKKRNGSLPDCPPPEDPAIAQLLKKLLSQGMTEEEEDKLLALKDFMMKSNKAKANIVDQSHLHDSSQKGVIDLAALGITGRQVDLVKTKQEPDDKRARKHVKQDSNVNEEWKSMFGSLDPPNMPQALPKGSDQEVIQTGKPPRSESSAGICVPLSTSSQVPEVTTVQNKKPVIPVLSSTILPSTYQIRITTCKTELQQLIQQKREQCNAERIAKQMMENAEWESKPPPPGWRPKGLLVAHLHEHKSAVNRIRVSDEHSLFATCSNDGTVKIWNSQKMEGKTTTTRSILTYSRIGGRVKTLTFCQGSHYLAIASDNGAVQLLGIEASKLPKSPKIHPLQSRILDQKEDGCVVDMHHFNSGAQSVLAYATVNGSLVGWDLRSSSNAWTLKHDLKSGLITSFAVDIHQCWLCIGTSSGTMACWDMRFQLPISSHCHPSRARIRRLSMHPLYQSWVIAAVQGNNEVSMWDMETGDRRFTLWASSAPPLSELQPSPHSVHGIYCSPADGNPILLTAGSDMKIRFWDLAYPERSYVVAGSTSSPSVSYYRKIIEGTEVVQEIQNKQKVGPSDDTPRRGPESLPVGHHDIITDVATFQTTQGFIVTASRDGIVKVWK
UniProt Q9BQY4: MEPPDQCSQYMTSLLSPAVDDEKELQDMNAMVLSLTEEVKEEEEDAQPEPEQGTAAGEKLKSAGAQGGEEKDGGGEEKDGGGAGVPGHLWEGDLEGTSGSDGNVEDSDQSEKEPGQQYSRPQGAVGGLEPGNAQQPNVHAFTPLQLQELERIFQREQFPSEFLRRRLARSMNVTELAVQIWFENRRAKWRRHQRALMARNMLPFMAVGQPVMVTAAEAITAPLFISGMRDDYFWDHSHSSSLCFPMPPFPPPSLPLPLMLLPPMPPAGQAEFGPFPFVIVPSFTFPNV
UniProt Q9BRK4: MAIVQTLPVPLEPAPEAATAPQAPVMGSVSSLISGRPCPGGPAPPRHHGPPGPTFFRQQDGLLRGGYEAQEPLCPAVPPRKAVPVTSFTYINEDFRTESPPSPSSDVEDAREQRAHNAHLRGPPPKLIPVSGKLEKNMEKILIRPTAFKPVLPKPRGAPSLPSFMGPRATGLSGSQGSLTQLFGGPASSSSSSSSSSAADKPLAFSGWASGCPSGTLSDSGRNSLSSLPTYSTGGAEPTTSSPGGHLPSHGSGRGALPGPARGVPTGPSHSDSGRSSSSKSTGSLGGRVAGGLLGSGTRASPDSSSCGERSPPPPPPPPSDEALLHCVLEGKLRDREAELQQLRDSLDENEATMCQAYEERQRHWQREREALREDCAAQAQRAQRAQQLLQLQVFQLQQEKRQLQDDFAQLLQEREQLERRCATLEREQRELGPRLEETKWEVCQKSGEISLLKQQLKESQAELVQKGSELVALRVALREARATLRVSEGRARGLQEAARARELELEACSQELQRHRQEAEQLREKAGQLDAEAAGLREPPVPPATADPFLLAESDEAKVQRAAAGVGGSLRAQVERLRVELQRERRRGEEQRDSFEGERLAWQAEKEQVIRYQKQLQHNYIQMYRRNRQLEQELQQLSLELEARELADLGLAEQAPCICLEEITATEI
UniProt Q99856: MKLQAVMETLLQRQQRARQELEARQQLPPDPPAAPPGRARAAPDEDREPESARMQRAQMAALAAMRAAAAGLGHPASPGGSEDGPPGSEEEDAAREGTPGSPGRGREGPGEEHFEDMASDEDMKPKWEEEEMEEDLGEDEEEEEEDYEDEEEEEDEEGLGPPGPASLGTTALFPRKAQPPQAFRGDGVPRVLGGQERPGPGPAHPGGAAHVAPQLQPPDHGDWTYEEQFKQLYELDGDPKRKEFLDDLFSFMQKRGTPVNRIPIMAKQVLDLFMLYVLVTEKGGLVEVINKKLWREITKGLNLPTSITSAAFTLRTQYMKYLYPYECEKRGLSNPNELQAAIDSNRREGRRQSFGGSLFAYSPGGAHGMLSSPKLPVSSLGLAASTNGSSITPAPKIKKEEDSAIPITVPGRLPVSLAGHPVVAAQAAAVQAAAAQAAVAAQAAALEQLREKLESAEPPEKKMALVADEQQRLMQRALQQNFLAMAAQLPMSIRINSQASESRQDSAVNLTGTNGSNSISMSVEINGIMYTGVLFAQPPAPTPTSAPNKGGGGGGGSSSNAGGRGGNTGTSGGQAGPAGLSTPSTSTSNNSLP

What follows are targets tested with Cc1nc(Nc2ncc(C(=O)Nc3c(C)cccc3Cl)s2)cc(N2CCN(CCO)CC2)n1 [dasatinib] (assay: log2 fold change of tryptic peptide abundance, ligand vs vehicle (limited proteolysis) (log2 ratio); higher = more trypsin-susceptible (destabilized)). Settings: ligand concentration: 5 uM; sample: K562 cleared lysate.
For “UniProt Q9BQP7 (peptide sequence: MILELGEDGFKEYTSNVFLQGKR, peptide start residue: 156)”, the log2 fold change was 0.599. Work on “SMC6 (peptide sequence: QKIQAEHASHGDREEIMR, peptide start residue: 876) (UniProt Q96SB8)” yielded a log2 fold change of 0.636. “DCLRE1C (peptide sequence: IPLHIISIKPSTMWFGER, peptide start residue: 280) (UniProt Q96SD1)” showed a log2 fold change of -0.408. With “AIF1L (peptide sequence: LVMMFEGK, peptide start residue: 122) (UniProt Q9BQI0)” the log2 fold change was 0.0842. “PIK3R4 (peptide sequence: QISTADVYCK, peptide start residue: 685) (UniProt Q99570)” was tested, and the log2 fold change was -0.359. For “RHOXF2 (peptide sequence: EQFPSEFLR, peptide start residue: 156) (UniProt Q9BQY4)”, the log2 fold change was -0.169. “LZTS2 (peptide sequence: GVPTGPSHSDSGR, peptide start residue: 263) (UniProt Q9BRK4)” was tested, and the log2 fold change was -0.324. For “ARID3A (peptide sequence: LESAEPPEK, peptide start residue: 453) (UniProt Q99856)”, the log2 fold change was -0.48.
